In PMC8615698:
No constants are given. Whether binding was seen depends on the method and setting. Some results given as binding are weak or reduced against the parent protein; the word gives no strength. Tags and fused reporters may be left off the sequences shown.

Amino acid sequences for entries named in this document (tags omitted). Residues count along the entry.
UniProt P07207, residues 53-2703: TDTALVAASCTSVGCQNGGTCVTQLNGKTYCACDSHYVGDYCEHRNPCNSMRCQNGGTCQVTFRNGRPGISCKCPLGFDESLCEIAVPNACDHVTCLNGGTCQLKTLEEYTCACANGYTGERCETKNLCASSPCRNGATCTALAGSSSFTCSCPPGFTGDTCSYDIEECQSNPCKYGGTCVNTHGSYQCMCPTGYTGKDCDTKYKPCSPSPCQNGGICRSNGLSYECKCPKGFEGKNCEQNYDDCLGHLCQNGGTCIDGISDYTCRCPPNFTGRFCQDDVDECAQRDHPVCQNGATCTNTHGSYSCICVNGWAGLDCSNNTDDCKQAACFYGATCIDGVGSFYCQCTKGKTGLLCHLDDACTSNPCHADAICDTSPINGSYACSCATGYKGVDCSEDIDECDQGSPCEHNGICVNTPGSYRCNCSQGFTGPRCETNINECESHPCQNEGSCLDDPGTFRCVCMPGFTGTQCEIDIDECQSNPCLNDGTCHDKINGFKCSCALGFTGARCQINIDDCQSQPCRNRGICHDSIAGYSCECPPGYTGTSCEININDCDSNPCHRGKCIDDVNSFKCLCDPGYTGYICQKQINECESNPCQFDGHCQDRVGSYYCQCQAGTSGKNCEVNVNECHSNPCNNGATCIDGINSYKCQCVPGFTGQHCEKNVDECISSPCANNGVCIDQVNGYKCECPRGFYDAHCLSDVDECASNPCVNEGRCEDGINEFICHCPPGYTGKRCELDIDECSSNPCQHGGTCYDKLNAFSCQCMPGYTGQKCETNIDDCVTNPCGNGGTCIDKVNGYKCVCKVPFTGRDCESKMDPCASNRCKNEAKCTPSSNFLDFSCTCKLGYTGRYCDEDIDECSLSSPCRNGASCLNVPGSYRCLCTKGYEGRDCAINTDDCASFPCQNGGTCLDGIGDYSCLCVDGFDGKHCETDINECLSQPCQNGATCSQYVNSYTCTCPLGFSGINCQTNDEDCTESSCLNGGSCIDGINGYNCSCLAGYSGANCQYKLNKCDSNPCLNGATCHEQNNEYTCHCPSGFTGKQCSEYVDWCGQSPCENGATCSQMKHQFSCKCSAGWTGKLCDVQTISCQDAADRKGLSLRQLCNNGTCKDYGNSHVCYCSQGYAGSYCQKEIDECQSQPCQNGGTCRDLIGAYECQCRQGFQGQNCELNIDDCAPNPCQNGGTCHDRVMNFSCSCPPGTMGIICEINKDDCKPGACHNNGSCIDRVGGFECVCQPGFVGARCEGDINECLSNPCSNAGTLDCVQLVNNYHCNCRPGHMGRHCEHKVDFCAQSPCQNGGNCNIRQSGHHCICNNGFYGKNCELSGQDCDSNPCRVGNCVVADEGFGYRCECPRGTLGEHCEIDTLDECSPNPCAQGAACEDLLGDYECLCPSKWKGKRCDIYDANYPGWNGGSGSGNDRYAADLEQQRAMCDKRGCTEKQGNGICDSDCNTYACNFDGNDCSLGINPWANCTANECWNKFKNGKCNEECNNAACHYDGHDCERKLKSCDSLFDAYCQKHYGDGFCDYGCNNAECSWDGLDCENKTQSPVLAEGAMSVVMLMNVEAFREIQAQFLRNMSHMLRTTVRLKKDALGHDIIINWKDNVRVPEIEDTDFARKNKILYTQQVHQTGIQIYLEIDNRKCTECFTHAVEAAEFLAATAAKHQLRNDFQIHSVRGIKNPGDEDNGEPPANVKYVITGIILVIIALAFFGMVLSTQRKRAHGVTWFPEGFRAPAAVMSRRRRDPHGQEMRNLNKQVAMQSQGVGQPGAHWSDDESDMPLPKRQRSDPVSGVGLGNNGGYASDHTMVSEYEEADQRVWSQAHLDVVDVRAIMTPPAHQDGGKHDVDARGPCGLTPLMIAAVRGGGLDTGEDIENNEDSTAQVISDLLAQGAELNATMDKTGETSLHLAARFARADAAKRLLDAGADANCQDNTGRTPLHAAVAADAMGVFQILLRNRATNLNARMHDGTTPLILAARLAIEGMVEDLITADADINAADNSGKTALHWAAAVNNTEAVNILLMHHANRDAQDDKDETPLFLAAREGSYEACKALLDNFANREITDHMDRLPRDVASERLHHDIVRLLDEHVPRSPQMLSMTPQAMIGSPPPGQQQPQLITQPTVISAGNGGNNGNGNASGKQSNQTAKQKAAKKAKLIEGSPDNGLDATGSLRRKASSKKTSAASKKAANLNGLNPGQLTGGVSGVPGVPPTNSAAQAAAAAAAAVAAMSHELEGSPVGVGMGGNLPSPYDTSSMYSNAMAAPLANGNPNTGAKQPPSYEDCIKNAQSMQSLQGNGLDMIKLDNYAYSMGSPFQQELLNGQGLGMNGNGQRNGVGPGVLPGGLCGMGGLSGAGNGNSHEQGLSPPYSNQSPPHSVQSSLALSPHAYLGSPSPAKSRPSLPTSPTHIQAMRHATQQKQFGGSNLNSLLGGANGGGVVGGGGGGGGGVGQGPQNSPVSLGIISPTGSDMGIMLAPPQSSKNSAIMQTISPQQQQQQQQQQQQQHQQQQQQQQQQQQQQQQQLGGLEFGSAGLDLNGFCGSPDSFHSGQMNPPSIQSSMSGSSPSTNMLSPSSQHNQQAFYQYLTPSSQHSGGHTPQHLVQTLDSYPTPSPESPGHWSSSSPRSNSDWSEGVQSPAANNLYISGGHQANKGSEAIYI

B1: Delta (full-length Delta-MYC) (ligand, UniProt P10041 19-833)
chain: QVHSSGSFELRLKYFSNDHGRDNEGRCCSGESDGATGKCLGSCKTRFRVCLKHYQATIDTTSQCTYGDVITPILGENSVNLTDAQRFQNKGFTNPIQFPFSFSWPGTFSLIVEAWHDTNNSGNARTNKLLIQRLLVQQVLEVSSEWKTNKSESQYTSLEYDFRVTCDLNYYGSGCAKFCRPRDDSFGHSTCSETGEIICLTGWQGDYCHIPKCAKGCEHGHCDKPNQCVCQLGWKGALCNECVLEPNCIHGTCNKPWTCICNEGWGGLYCNQDLNYCTNHRPCKNGGTCFNTGEGLYTCKCAPGYSGDDCENEIYSCDADVNPCQNGGTCIDEPHTKTGYKCHCANGWSGKMCEEKVLTCSDKPCHQGICRNVRPGLGSKGQGYQCECPIGYSGPNCDLQLDNCSPNPCINGGSCQPSGKCICPAGFSGTRCETNIDDCLGHQCENGGTCIDMVNQYRCQCVPGFHGTHCSSKVDLCLIRPCANGGTCLNLNNDYQCTCRAGFTGKDCSVDIDECSSGPCHNGGTCMNRVNSFECVCANGFRGKQCDEESYDSVTFDAHQYGATTQARADGLTNAQVVLIAVFSVAMPLVAVIAACVVFCMKRKRKRAQEKDDAEARKQNEQNAVATMHHNGSGVGVALASASLGGKTGSNSGLTFDGGNPNIIKNTWDKSVNNICASAAAAAAAAAAADECLMYGGYVASVADNNNANSDFCVAPLQRAKSQKQLNTDPTLMHRGSPAGSSAKGASGGGPGAAEGKRISVLGEGSYCSQRWPSLAAAGVAGACSSQLMAAASVAGSGAGTAQQQRSVVCGTPHM

Target: T1, Delta (full-length Delta-MYC) (Drosophila melanogaster) (UniProt P10041)
T1 sequence: B1 chain
Assay: cell aggregation assay; S2 cells expressing full-length Notch or Delta-MYC (induced with 0.7 mM CuSO4), alone or mixed, 30 min in 2 mL on a belly dancer, then 15 min on poly L-lysine slides, fixed; light microscopy or antibody staining; also done after RNAi against mnr transcripts RA and/or RC, with no influence on clustering

Molecule | binding
Notch receptor (full-length Notch) (from UniProt P07207 53-2703) | binds
B1 | binds
